# The supplement of paper PMC6411743
# ± gives the standard deviation of the averaged measurements. The list shows a part of the results.
# Molecular target: UniProt P07900 and related entries
# Assay: NP40-soluble protein abundance relative to vehicle (solubility fold change) (ratio); higher = more soluble protein in presence of GTP
# Experimental: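 Solubility proteome profiling in Jurkat crude lysate. Lysate was treated with Mg-GTP (0.1-10 mM) for 10 min at room temperature and 3 min at 37 °C, then solubilised with 0.8% NP40 and benzonase, followed by ultracentrifugation. Proteins were quantified by TMT10 LC-MS/MS; the value is the NP40-soluble abundance relative to the NP40-processed vehicle, from 3 independent experiments.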
structure (smiles),measurement,setting,value
Nc1nc2c(ncn2[C@@H]2O[C@H](COP(=O)(O)OP(=O)(O)OP(=O)(O)O)[C@@H](O)[C@H]2O)c(=O)[nH]1 [guanosine triphosphate],NP40-soluble protein abundance,concentration: 0.1mM,0.96 ± 0.049
same,NP40-soluble protein abundance,concentration: 0.5mM,0.993 ± 0.054
same,NP40-soluble protein abundance,concentration: 1mM,0.93 ± 0.047
same,NP40-soluble protein abundance,concentration: 2mM,0.913 ± 0.042
same,NP40-soluble protein abundance,concentration: 4mM,0.912 ± 0.045
same,NP40-soluble protein abundance,concentration: 6mM,0.91 ± 0.046
same,NP40-soluble protein abundance,concentration: 8mM,0.889 ± 0.055
same,NP40-soluble protein abundance,concentration: 10mM,0.879 ± 0.042
